According to paper PMC8699254:
No constants are given. Whether binding was seen depends on the method and setting. In cells and extracts the contact can be indirect. Some entries that bind do so weakly or less than the wild type. Where a sequence is shown, tags or fusion partners need not be part of it.

Chains of the proteins cited; added tags and fusions are not shown.
UniProt Q14289: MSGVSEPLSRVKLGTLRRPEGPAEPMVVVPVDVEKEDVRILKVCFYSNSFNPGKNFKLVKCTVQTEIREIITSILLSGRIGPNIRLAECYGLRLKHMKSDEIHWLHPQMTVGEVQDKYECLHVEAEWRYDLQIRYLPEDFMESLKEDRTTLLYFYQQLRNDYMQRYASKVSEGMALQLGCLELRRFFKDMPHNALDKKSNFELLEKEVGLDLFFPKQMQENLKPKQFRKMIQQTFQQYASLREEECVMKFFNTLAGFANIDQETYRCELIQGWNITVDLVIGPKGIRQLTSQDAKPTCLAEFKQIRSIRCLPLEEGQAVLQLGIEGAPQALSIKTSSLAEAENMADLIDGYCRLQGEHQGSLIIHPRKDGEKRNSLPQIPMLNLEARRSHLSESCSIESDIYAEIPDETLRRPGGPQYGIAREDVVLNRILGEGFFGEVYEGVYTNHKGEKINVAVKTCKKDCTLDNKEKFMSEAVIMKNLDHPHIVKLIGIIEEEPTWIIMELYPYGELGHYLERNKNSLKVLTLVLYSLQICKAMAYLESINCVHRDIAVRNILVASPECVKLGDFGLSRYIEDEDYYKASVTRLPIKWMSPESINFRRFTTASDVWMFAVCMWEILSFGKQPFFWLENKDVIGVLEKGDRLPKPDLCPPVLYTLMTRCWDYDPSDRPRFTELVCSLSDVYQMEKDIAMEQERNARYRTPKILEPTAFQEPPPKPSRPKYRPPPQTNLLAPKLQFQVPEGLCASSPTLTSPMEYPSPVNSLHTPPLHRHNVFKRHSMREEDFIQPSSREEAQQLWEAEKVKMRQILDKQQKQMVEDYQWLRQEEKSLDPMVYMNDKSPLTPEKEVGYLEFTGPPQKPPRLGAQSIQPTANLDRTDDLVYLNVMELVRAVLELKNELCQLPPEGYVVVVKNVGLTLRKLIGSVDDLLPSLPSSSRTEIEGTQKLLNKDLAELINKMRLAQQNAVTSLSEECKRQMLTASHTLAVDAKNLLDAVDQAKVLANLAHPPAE

Target: T1, Strep-tagged PEAK3 (ST-PEAK3), wild type (human) (UniProt Q6ZS72)
T1 sequence: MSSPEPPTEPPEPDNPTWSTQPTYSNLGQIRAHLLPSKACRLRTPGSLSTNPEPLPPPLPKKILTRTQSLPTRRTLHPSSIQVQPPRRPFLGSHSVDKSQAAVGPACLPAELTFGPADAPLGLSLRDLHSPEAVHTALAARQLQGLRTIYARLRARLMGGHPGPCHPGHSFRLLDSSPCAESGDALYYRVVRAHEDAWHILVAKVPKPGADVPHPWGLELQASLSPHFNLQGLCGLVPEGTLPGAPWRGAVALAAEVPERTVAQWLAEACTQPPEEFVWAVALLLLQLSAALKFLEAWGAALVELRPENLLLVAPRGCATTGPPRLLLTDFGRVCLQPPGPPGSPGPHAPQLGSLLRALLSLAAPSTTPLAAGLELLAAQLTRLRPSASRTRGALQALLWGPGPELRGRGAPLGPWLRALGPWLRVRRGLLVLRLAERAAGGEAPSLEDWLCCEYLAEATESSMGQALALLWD
Assay: pull-down; ST-PEAK3 (WT or A436E) pulled down from lysates of U2OS (Figure 5b) and THP1 cells (Figure 5c, 6c), western blot of endogenous partners; THP1 cells also treated or not with pervanadate (0.1 uM, 15 min) or PYK2 inhibitor (1 uM, 2 h)

## FAK-like tyrosine kinase PYK2 (endogenous) (from UniProt Q14289 1-1009) (enzyme)
  binding: binds
